Reference: ChEMBL document CHEMBL3526101, “Discovery and characterization of novel, potent, and selective cytochrome P450 2J2 inhibitors” (Drug Metab Dispos, 2013)

Target: T1, Cytochrome P450 2J2 (Homo sapiens, UniProt P51589)
T1 sequence (P51589 whole entry): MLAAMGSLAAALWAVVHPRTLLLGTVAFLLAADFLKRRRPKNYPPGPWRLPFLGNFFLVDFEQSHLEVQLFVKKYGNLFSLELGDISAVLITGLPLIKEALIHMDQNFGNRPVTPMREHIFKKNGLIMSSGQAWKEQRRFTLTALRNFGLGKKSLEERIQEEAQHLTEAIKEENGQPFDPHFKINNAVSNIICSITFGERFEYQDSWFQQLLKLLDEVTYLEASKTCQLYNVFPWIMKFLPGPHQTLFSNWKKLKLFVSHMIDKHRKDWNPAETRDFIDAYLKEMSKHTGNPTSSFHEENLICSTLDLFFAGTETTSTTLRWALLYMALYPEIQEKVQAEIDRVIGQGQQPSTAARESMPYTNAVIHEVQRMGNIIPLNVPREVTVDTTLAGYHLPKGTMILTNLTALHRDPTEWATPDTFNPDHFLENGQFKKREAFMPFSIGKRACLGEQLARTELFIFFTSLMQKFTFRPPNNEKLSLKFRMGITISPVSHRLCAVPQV

C=CCN1CC[C@]23c4c5ccc(O)c4O[C@H]2C(=O)CC[C@@]3(O)[C@H]1C5 [NALOXONE] was tested. Which IC50 did it give?
The IC50 was over 50 µM.
